Data source: PubChem BioAssay AID1259425 (University of Nebraska Medical Center, 2018)
In all, the deposit lists about 14,000 reagents; shown is a part drawn at random. The numbers tell different reagents against one gene apart. Not all columns of the deposit are shown. Not stated in the record: the time to read-out.

- Test: 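Find knockdowns that reproduce the gene expression pattern seen when KSR1 is lost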 (primary screen)
- Cells: HCT116 human colon cancer cells
- Reagents: siRNA pool against human genes, 50 nM siRNA
- Detection: 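mRNA of six signature genes measured together by branched-DNA assay after 50 nM siRNA pool, blank removed, divided by geometric mean of two housekeeping genes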
- Reading the numbers: BNIP3L mRNA: higher = more BNIP3L transcript after knockdown

Which result is listed for COL4A4 (GeneID 1286)?
BNIP3L mRNA, set 1: 0.0556

With DVL3 (GeneID 1857), what was measured?
BNIP3L mRNA, set 1: 0.079

What did the screen give for IL26 (GeneID 55801)?
BNIP3L mRNA, set 1: 0.0881

How did the screen score ZNF185 (GeneID 7739)?
BNIP3L mRNA, set 1: 0.197

For FANCI (GeneID 55215), what was measured?
BNIP3L mRNA, set 1: 0.0646

What is on record for AAMDC (GeneID 28971)?
BNIP3L mRNA, set 1: 0.165

With LRP6 (GeneID 4040), what was measured?
BNIP3L mRNA, set 1: 0.0573

Which result is listed for TRIM27 (GeneID 5987)?
BNIP3L mRNA, set 1: 0.0852

For BTNL3 (GeneID 10917), what was measured?
BNIP3L mRNA, set 1: 0.0798

For METTL3 (GeneID 56339), what was measured?
BNIP3L mRNA, set 1: 0.15

For GFRA3 (GeneID 2676), what was measured?
BNIP3L mRNA, set 1: 0.187

Laid out differently: results already given.
gene knocked down,reagent no.,"BNIP3L mRNA, set 1"
FANCI (GeneID 55215),1,0.0646
AAMDC (GeneID 28971),1,0.165

The list goes on.
What did the screen give for MBL2 (GeneID 4153)?
BNIP3L mRNA, set 1: 0.121

For GFOD1 (GeneID 54438) #1, how do the results read?
BNIP3L mRNA, set 1: 0.172

What is on record for GFOD1 (GeneID 54438) #2?
BNIP3L mRNA, set 1: 0.125

What did the screen give for MPPE1 (GeneID 65258)?
BNIP3L mRNA, set 1: 0.174

How did the screen score DNM2 (GeneID 1785)?
BNIP3L mRNA, set 1: 0.0729

What did the screen give for KMT2B (GeneID 9757)?
BNIP3L mRNA, set 1: 0.0531

For BKGD (GeneID 28970), what does the deposit list?
BNIP3L mRNA, set 1: 0.134

How did the screen score ENKD1 (GeneID 84080)?
BNIP3L mRNA, set 1: 0.229
